In the test the target is T1, RIR1-GFP (ProRIR1:RIR1-GFP in the rir1-1 mutant) (Arabidopsis thaliana) (UniProt C0LGG9).
T1 sequence: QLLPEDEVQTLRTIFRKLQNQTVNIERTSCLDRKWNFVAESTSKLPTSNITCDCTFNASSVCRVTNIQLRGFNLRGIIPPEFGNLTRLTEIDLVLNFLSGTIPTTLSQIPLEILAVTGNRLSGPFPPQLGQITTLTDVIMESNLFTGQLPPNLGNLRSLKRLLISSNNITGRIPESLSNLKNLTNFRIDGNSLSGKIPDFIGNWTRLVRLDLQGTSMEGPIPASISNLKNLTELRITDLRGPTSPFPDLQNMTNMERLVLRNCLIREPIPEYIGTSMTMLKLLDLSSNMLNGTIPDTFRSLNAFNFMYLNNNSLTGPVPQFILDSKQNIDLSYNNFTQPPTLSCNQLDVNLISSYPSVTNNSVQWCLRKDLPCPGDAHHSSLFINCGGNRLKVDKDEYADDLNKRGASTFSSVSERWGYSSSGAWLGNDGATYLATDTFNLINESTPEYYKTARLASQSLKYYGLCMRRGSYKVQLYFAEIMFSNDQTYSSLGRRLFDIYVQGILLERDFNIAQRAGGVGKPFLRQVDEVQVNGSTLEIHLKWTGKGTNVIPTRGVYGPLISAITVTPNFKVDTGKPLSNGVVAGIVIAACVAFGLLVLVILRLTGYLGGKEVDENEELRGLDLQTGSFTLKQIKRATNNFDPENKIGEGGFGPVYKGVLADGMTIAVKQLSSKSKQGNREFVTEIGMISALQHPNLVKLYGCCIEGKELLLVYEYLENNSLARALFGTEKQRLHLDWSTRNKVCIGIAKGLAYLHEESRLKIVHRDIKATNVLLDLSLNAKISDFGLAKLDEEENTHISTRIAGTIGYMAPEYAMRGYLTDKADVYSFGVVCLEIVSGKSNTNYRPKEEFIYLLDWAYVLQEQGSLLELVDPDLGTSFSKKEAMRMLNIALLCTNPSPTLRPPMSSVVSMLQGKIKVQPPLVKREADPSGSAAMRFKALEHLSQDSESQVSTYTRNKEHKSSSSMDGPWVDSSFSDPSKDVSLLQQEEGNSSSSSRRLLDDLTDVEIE
The test is described as follows: affinity purification with mass spectrometry.

These results are taken from paper doi:10.1101/2021.01.28.428596.

These are yes or no findings as the source states them, for the method shown. In cells and extracts the contact can be indirect. These calls come from enrichment with a bait or labelling near it, and not all partners need be listed. Sequences can lack the tags named with a protein.

B1: NEMATODE-INDUCED LRR-RLK 2 (NILR2), endogenous (receptor, UniProt C0LGG8 29-1038)
chain: QLLPEDEVQTLRTIFRKLQNQTVNIERTSCSDQNWNFVVESASNSPTSNITCDCTFNASSVCRVTNIQLKSFSLPGIFPPEFGNLTRLREIDLSRNFLNGTIPTTLSQIPLEILSVIGNRLSGPFPPQLGDITTLTDVNLETNLFTGPLPRNLGNLRSLKELLLSANNFTGQIPESLSNLKNLTEFRIDGNSLSGKIPDFIGNWTLLERLDLQGTSMEGPIPPSISNLTNLTELRITDLRGQAAFSFPDLRNLMKMKRLVLRNCLIRGPIPEYIGSMSELKTLDLSSNMLTGVIPDTFRNLDAFNFMFLNNNSLTGPVPQFIINSKENLDLSDNNFTQPPTLSCNQLDVNLISSYPSVTDNSVQWCLREGLPCPEDAKQSSLFINCGGSRLKIGKDTYTDDLNSRGQSTFSSVSERWGYSSSGVWLGKEDAGYLATDRFNLINGSTPEYYKTARLSPQSLKYYGLCLRRGSYKLQLHFAEIMFSNDQTFNSLGRRIFDIYVQGNLLERDFNIAERAGGVGKPFIRQIDGVQVNGSTLEIHLQWTGKGTNVIPTRGVYGPLISAITITPNFKVDTGKPLSNGAVAGIVIAACAVFGLLVLVILRLTGYLGGKEVDENEELRGLDLQTGSFTLKQIKRATNNFDPENKIGEGGFGPVYKGVLADGMTIAVKQLSSKSKQGNREFVTEIGMISALQHPNLVKLYGCCIEGKELLLVYEYLENNSLARALFGTEKQRLHLDWSTRNKICIGIAKGLAYLHEESRLKIVHRDIKATNVLLDLSLNAKISDFGLAKLNDDENTHISTRIAGTIGYMAPEYAMRGYLTDKADVYSFGVVCLEIVSGKSNTNYRPKEEFVYLLDWAYVLQEQGSLLELVDPDLGTSFSKKEAMRMLNIALLCTNPSPTLRPPMSSVVSMLEGKIKVQPPLVKREADPSGSAAMRFKALELLSQDSESQVSTYARNREQDISSSSMDGPWVDSSFSEPGKDVSLQQQEEGRSSSSSRKLLDDLTDVKIE
As to B1, the binding result is “binds”.
